Part of at least one peptide drawing is inferred or uncertain, most often the ends. Square brackets hold non-standard residues; d marks the D form. Ends that are not written are not given here. Peptide text beside a SMILES is read from it.
System: Spontaneous Ovarian Teratoma Cells
Assay: Survival of mice injected with Spontaneous Ovarian Teratoma cells
Type: in vivo
Conditions: intraperitoneal; for Median Survival Time: days 2 and 5 after SOT cells, number in parentheses apparently control group

CC[C@H](C)[C@H](NC(=O)CN)C(=O)NCC(=O)N[C@@H](CCCCN)C(=O)N[C@@H](Cc1ccccc1)C(=O)N[C@@H](CC(C)C)C(=O)N[C@@H](CCCCN)C(=O)N[C@@H](CO)C(=O)N[C@@H](C)C(=O)N[C@@H](CCCCN)C(=O)N[C@@H](CCCCN)C(=O)N[C@@H](Cc1ccccc1)C(=O)NCC(=O)N[C@@H](CCCCN)C(=O)N[C@@H](C)C(=O)N[C@@H](Cc1ccccc1)C(=O)N[C@H](C(=O)N[C@@H](CCCCN)C(=O)N[C@H](C(=O)N[C@@H](CC(C)C)C(=O)N[C@@H](CC(N)=O)C(=O)N[C@@H](CO)C(N)=O)[C@@H](C)CC)C(C)C [(SEQ ID NO:6)-NH2, reference compound]
ILS (increase in life span vis-a-vis the control group) (days 2 and 5, dose 60/50 mg/kg/day): 100%
Median Survival Time (dose 60/50 mg/kg/day): > 42 days

GIGKFLKKAKKFAKAFVKIINN-NH2 [(SEQ ID NO:7)-NH2, reference compound]
Median Survival Time (dose 22 mg/kg/day): 38 days

CC[C@@H](C)[C@@H](NC(=O)CN)C(=O)NCC(=O)N[C@H](CCCCN)C(=O)N[C@H](Cc1ccccc1)C(=O)N[C@H](CC(C)C)C(=O)N[C@H](CCCCN)C(=O)N[C@H](CCCCN)C(=O)N[C@H](C)C(=O)N[C@H](CCCCN)C(=O)N[C@H](CCCCN)C(=O)N[C@H](Cc1ccccc1)C(=O)N[C@H](C)C(=O)N[C@H](CCCCN)C(=O)N[C@H](C)C(=O)N[C@H](Cc1ccccc1)C(=O)N[C@@H](C(=O)N[C@H](CCCCN)C(=O)N[C@@H](C(=O)N[C@@H](C(=O)N[C@H](CC(N)=O)C(=O)N[C@H](CC(N)=O)C(N)=O)[C@H](C)CC)[C@H](C)CC)C(C)C [D-(SEQ ID NO:7)-NH2] (H-G[dI]G[dK][dF][dL][dK][dK][dA][dK][dK][dF][dA][dK][dA][dF][dV][dK][dI][dI][dN][dN]-NH2)
Median Survival Time (dose 22 mg/kg/day): 41.5 days

CC[C@@H](C)[C@@H](NC(=O)CN)C(=O)NCC(=O)N[C@H](CCCCN)C(=O)N[C@H](Cc1ccccc1)C(=O)N[C@H](CC(C)C)C(=O)N[C@H](CCCCN)C(=O)N[C@H](CO)C(=O)N[C@H](C)C(=O)N[C@H](CCCCN)C(=O)N[C@H](CCCCN)C(=O)N[C@H](Cc1ccccc1)C(=O)NCC(=O)N[C@H](CCCCN)C(=O)N[C@H](C)C(=O)N[C@H](Cc1ccccc1)C(=O)N[C@@H](C(=O)N[C@H](CCCCN)C(=O)N[C@@H](C(=O)N[C@H](CC(C)C)C(=O)N[C@H](CC(N)=O)C(=O)N[C@H](CO)C(N)=O)[C@H](C)CC)C(C)C [D-(SEQ ID NO:6)-NH2]
ILS (increase in life span vis-a-vis the control group) (days 2 and 5, dose 15 mg/kg/day): 67%
ILS (increase in life span vis-a-vis the control group) (days 2 and 5, dose 45 mg/kg/day): 83%
Median Survival Time (dose 15 mg/kg/day): 35 days
Median Survival Time (dose 45 mg/kg/day): 38 days

Reference: US5792831A, “Analogues of magainin peptides containing D-amino acids” (priority 1994, dated 1998)
